From US20130216485A1, “Dentifrice Composition with Reduced Astringency” (Colgate-Palmolive Company, priority 2010, published 2013)

Assay: ESCA surface composition of treated hydroxyapatite disks
Settings: average of all disks

With `O=P(O)(O)O[C@H]1[C@H](OP(=O)(O)O)[C@@H](OP(=O)(O)O)[C@H](OP(=O)(O)O)[C@@H](OP(=O)(O)O)[C@H]1OP(=O)(O)O` [2:1 Phytic acid, phytic acid (inositol hexaphosphate)] the “ESCA Ratio P/Ca” value was 0.96, the “ESCA surface composition, C” value was 27.24 Atomic Percent and the “ESCA surface composition, Ca” value was 9.29 Atomic Percent. For the same molecule, the “ESCA surface composition, Mg” value was 0.52 Atomic Percent, the “ESCA surface composition, Na” value was 6.69 Atomic Percent and the “ESCA surface composition, O” value was 42.35 Atomic Percent. The “ESCA Ratio P/Ca” value (listed as phytic acid) was “significant increase”.
